Literature values, collected in patent US11912664B2, “Determining small molecule-protein and protein-protein interactions” (President and Fellows of Harvard College, priority 2017, dated 2024).

Conditions: in vivo; cited from earlier work

## COc1ccc2cc([C@H](C)C(=O)O)ccc2c1 [naproxen (1), naproxen]
  blood plasma concentration: > 250 µM
